Test results: the supplement of paper PMC4604168 (melanoma cell lines)
Some of the results follow. Single values are uncertain, as repeats are few or missing.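 Imaging used 1,536-well plates; nuclei positive for cleaved PARP by antibody were divided by total DNA-stained nuclei to yield the apoptosis fraction. Doses for screening kept most cells viable, and cell lines differ markedly in resting and induced cleaved-PARP levels.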

Experiments:
Assay in all cases: cleaved PARP positive nuclei fraction relative to DMSO control; melanoma cells; higher = more apoptosis
Settings in all cases: library dose: low library concentration; 72 h
501Mel = tested on: 501Mel
A101D = tested on: A101D
A2058 = tested on: A2058
A375 = tested on: A375
C32 = tested on: C32
CBRC008 = tested on: CBRC008 (line from a melanoma biopsy)
CBRC014 = tested on: CBRC014 (line from a melanoma biopsy)
CBRC016 = tested on: CBRC016 (line from a melanoma biopsy)
CBRC017 = tested on: CBRC017 (line from a melanoma biopsy)

| Compound | cleaved PARP positive nuclei fraction (501Mel) [%] | cleaved PARP positive nuclei fraction (A101D) [%] | cleaved PARP positive nuclei fraction (A2058) [%] | cleaved PARP positive nuclei fraction (A375) [%] | cleaved PARP positive nuclei fraction (C32) [%] | cleaved PARP positive nuclei fraction (CBRC008) [%] | cleaved PARP positive nuclei fraction (CBRC014) [%] | cleaved PARP positive nuclei fraction (CBRC016) [%] | cleaved PARP positive nuclei fraction (CBRC017) [%] |
| --- | --- | --- | --- | --- | --- | --- | --- | --- | --- |
| C[C@]1(O)C[C@@H](c2nc(-c3ccc4ccc(-c5ccccc5)nc4c3)c3c(N)nccn32)C1 + C[As](C)SC[C@H](NC(=O)CC[C@H](N)C(=O)O)C(=O)NCC(=O)O [Darinaparsin] (first compound 0.4 µM, partner dose 0.4 µM) | 70.2 | 85.4 | 45 | 879 | 82.4 | 90.3 | 112 | 84.3 | 223 |
| CC(C)C[C@H](NC(=O)[C@H](Cc1ccccc1)NC(=O)c1cnccn1)B(O)O [Bortezomib] + C[As](C)SC[C@H](NC(=O)CC[C@H](N)C(=O)O)C(=O)NCC(=O)O [Darinaparsin] (first compound 0.001 µM, partner dose 0.4 µM) | 1460 | 1160 | 143 | 91 | 89.6 | 425 | 169 | 633 | 192 |
| CC1(C)CCC(c2ccc(Cl)cc2)=C(CN2CCN(c3ccc(C(=O)NS(=O)(=O)c4ccc(N[C@H](CCN5CCOCC5)CSc5ccccc5)c(S(=O)(=O)C(F)(F)F)c4)cc3)CC2)C1 + C[C@]12O[C@H](C[C@]1(O)CO)n1c3ccccc3c3c4c(c5c6ccccc6n2c5c31)CNC4=O [Lestaurtinib] (first compound 0.4 µM, partner dose 0.004 µM) | 178 | 148 | 124 | 163 | 198 | 436 | 480 | 515 | 344 |
| Cn1cc(C2=C(c3cn(C4CCN(Cc5ccccn5)CC4)c4ccccc34)C(=O)NC2=O)c2ccccc21 [Enzastaurin] + CC(C)C[C@H](NC(=O)[C@H](Cc1ccccc1)NC(=O)c1cnccn1)B(O)O [Bortezomib] (first compound 0.8 µM, partner dose 0.001 µM) | 334 | 635 | 118 | 46.2 | 58.7 | 891 | 472 | 510 | 985 |
| Cn1cc(C2=C(c3cn(C4CCN(Cc5ccccn5)CC4)c4ccccc34)C(=O)NC2=O)c2ccccc21 [Enzastaurin] + Cc1cc(Nc2cc(N3CCN(C)CC3)nc(/C=C/c3ccccc3)n2)n[nH]1 [ENMD2076] (first compound 0.8 µM, partner dose 0.04 µM) | 74.4 | 147 | 137 | 238 | 71 | 207 | 91.6 | 101 | 86.8 |
| Cn1cc(C2=C(c3cn(C4CCN(Cc5ccccn5)CC4)c4ccccc34)C(=O)NC2=O)c2ccccc21 [Enzastaurin] + Nc1nc(F)nc2c1ncn2[C@@H]1O[C@H](CO)[C@@H](O)[C@@H]1O [fludarabine] (first compound 0.8 µM, partner dose 0.2 µM) | 12700 | 126 | 109 | 3260 | 73.4 | 27.7 | 107 | 86 | 99.8 |
| NC(=O)c1ccc(N(C(N)=O)c2c(F)cccc2F)nc1-c1ccc(F)cc1F + N.N.[Cl][Pt][Cl] [cisplatin] (first compound 0.4 µM, partner dose 1.6 µM) | 121 | 190 | 105 | 50.8 | 61.6 | 156 | 112 | 402 | 109 |
| Cn1cc(C2=C(c3cn(C4CCN(Cc5ccccn5)CC4)c4ccccc34)C(=O)NC2=O)c2ccccc21 [Enzastaurin] + COc1ccc(Cl)c(Nc2nc3ccccc3nc2NS(=O)(=O)c2cccc(NC(=O)C(C)(C)N)c2)c1 [XL147] (first compound 0.8 µM, partner dose 0.8 µM) | 86.5 | 45.6 | 37.1 | 58.3 | 38.1 | 80.2 | 129 | 151 | 102 |
| N.N.[Cl][Pt][Cl] [cisplatin] + Clc1ccc(Nc2nnc(Cc3ccncc3)c3ccccc23)cc1 [vatalanib] (first compound 1.6 µM, partner dose 2 µM) | 103 | 99.3 | 120 | 1050 | 67.8 | 380 | 238 | 291 | 108 |
| Cn1cc(C2=C(c3cn(C4CCN(Cc5ccccn5)CC4)c4ccccc34)C(=O)NC2=O)c2ccccc21 [Enzastaurin] + C[C@]12O[C@H](C[C@]1(O)CO)n1c3ccccc3c3c4c(c5c6ccccc6n2c5c31)CNC4=O [Lestaurtinib] (first compound 0.8 µM, partner dose 0.004 µM) | 68.6 | 215 | 111 | 201 | 88.9 | 61.4 | 99.1 | 123 | 123 |
| N.N.[Cl][Pt][Cl] [cisplatin] + COc1ccc(Cl)c(Nc2nc3ccccc3nc2NS(=O)(=O)c2cccc(NC(=O)C(C)(C)N)c2)c1 [XL147] (first compound 1.6 µM, partner dose 0.8 µM) | 58.5 | 100 | 155 | 44.1 | 67.3 | 170 | 147 | 151 | 223 |
| O=C(Nc1cc(C(F)(F)F)cc(C(F)(F)F)c1)c1cc(Cl)ccc1O + C[As](C)SC[C@H](NC(=O)CC[C@H](N)C(=O)O)C(=O)NCC(=O)O [Darinaparsin] (first compound 0.016 µM, partner dose 0.4 µM) | 93.6 | 135 | 106 | 19 | 63.4 | 71.6 | 81.4 | 78.4 | 98.9 |
| Cn1cc(C2=C(c3cn(C4CCN(Cc5ccccn5)CC4)c4ccccc34)C(=O)NC2=O)c2ccccc21 [Enzastaurin] + Cn1c(Nc2ccc(C(F)(F)F)cc2)nc2cc(Oc3ccnc(-c4ncc(C(F)(F)F)[nH]4)c3)ccc21 [CHIR265] (first compound 0.8 µM, partner dose 0.08 µM) | 99.3 | 134 | 275 | 302 | 75.5 | 418 | 98.1 | 168 | 133 |
| CC[C@]1(O)C[C@H]2CN(CCc3c([nH]c4ccccc34)[C@@](C(=O)OC)(c3cc4c(cc3OC)N(C=O)[C@H]3[C@@](O)(C(=O)OC)[C@H](OC(C)=O)[C@]5(CC)C=CCN6CC[C@]43[C@@H]65)C2)C1 [vincristine] + Cn1cc(C2=C(c3cn(C4CCN(Cc5ccccn5)CC4)c4ccccc34)C(=O)NC2=O)c2ccccc21 [Enzastaurin] (first compound 0.0001 µM, partner dose 0.8 µM) | 84.5 | 149 | 153 | 97.3 | 179 | 102 | 170 | 152 | 96.1 |
| CS(=O)(=O)CCNCc1ccc(-c2ccc3ncnc(Nc4ccc(OCc5cccc(F)c5)c(Cl)c4)c3c2)o1 [lapatinib] + C[As](C)SC[C@H](NC(=O)CC[C@H](N)C(=O)O)C(=O)NCC(=O)O [Darinaparsin] (first compound 0.8 µM, partner dose 0.4 µM) | 45.7 | 30.8 | 105 | 229 | 61 | 21.9 | 109 | 90.3 | 111 |
| Cn1cc(C2=C(c3cn(C4CCN(Cc5ccccn5)CC4)c4ccccc34)C(=O)NC2=O)c2ccccc21 [Enzastaurin] + Cn1nnc2c(C(N)=O)ncn2c1=O [temozolomide] (first compound 0.8 µM, partner dose 2 µM) | 46.5 | 51.9 | 44.5 | 101 | 264 | 359 | 101 | 119 | 221 |
| N.N.[Cl][Pt][Cl] [cisplatin] + CCCS(=O)(=O)Nc1ccc(F)c(C(=O)c2c[nH]c3ncc(Cl)cc23)c1F [PLX4720] (first compound 1.6 µM, partner dose 0.08 µM) | 65.6 | 130 | 176 | 78.3 | 273 | 200 | 122 | 168 | 88.9 |
| C[C@]12O[C@H](C[C@]1(O)CO)n1c3ccccc3c3c4c(c5c6ccccc6n2c5c31)CNC4=O [Lestaurtinib] + Nc1nc(F)nc2c1ncn2[C@@H]1O[C@H](CO)[C@@H](O)[C@@H]1O [fludarabine] (first compound 0.004 µM, partner dose 0.2 µM) | 10100 | 51.7 | 88 | 2790 | 133 | 45 | 96 | 157 | 99.5 |
| C[C@]12O[C@H](C[C@]1(O)CO)n1c3ccccc3c3c4c(c5c6ccccc6n2c5c31)CNC4=O [Lestaurtinib] + CCN(CC)CCNC(=O)c1c(C)[nH]c(/C=C2\C(=O)Nc3ccc(F)cc32)c1C [sunitinib] (first compound 0.004 µM, partner dose 0.4 µM) | 357 | 108 | 61.1 | 375 | 98 | 72.4 | 90.4 | 125 | 110 |
| N#CC[C@H](C1CCCC1)n1cc(-c2ncnc3[nH]ccc23)cn1 [ruxolitinib] + C[C@]12O[C@H](C[C@]1(O)CO)n1c3ccccc3c3c4c(c5c6ccccc6n2c5c31)CNC4=O [Lestaurtinib] (first compound 1 µM, partner dose 0.004 µM) | 868 | 43.8 | 115 | 91.2 | 38.3 | 80.4 | 105 | 198 | 95.5 |
